Assay results taken from PMC4618059.
Results are given in words; binding and its absence hold for the method and conditions named. Binding seen in cells or lysates may run through a third protein. These calls come from enrichment with a bait or labelling near it, and not all partners need be listed.

Protein sequences, listed by entry. Tags and fused reporters are not part of them. Lines headed by an entry give the natural chain unless they say otherwise; changes in a name come on top. Residues count along the entry.
UniProt Q96QZ7: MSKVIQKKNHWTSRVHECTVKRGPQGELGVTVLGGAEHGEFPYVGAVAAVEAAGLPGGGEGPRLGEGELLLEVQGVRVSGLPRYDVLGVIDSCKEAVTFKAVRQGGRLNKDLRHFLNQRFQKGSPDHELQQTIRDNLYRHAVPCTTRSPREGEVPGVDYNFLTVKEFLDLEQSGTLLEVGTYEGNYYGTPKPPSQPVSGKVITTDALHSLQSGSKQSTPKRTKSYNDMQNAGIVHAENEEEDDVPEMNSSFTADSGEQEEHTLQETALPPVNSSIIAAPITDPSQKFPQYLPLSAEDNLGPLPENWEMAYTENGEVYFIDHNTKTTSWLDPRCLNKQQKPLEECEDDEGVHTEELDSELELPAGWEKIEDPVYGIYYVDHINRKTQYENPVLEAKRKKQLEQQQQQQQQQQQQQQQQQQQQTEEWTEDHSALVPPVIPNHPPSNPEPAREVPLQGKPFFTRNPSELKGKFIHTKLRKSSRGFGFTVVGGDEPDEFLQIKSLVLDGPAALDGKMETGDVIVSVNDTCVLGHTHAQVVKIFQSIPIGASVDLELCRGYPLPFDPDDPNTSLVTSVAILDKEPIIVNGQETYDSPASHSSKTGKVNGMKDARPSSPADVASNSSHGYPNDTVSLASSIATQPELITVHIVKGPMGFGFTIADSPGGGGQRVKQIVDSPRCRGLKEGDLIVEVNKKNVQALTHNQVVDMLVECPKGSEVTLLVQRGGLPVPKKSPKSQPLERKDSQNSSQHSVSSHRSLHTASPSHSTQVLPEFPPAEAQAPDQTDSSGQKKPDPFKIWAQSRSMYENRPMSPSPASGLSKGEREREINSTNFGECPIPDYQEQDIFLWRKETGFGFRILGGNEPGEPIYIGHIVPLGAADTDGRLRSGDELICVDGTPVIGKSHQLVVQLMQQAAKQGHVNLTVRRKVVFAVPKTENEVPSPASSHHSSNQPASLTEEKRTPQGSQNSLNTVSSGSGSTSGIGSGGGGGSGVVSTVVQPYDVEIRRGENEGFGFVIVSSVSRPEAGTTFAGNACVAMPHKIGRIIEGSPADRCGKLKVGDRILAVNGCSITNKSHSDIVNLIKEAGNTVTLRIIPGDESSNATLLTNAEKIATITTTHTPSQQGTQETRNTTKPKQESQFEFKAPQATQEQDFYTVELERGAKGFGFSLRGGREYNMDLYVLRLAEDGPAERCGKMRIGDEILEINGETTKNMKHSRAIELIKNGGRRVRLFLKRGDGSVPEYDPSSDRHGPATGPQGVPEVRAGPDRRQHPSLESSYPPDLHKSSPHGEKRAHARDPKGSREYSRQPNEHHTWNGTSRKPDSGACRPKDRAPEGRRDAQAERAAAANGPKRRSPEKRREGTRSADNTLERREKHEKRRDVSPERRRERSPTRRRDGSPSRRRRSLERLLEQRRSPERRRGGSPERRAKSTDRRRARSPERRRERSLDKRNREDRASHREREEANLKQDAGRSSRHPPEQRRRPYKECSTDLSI
UniProt Q923T9: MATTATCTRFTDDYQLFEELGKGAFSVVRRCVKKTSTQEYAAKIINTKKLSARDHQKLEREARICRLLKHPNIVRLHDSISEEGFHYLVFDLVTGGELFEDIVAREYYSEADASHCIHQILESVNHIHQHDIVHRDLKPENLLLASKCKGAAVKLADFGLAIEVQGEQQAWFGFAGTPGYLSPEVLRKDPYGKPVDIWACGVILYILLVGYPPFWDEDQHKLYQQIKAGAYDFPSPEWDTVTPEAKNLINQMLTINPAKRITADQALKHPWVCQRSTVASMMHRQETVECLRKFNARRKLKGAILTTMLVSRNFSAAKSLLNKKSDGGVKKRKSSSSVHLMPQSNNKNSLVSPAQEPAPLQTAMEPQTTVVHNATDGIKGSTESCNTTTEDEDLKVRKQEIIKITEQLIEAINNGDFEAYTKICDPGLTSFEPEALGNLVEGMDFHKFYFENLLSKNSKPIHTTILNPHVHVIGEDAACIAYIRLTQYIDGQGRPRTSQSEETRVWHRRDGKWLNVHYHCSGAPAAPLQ
UniProt Q6RHR9: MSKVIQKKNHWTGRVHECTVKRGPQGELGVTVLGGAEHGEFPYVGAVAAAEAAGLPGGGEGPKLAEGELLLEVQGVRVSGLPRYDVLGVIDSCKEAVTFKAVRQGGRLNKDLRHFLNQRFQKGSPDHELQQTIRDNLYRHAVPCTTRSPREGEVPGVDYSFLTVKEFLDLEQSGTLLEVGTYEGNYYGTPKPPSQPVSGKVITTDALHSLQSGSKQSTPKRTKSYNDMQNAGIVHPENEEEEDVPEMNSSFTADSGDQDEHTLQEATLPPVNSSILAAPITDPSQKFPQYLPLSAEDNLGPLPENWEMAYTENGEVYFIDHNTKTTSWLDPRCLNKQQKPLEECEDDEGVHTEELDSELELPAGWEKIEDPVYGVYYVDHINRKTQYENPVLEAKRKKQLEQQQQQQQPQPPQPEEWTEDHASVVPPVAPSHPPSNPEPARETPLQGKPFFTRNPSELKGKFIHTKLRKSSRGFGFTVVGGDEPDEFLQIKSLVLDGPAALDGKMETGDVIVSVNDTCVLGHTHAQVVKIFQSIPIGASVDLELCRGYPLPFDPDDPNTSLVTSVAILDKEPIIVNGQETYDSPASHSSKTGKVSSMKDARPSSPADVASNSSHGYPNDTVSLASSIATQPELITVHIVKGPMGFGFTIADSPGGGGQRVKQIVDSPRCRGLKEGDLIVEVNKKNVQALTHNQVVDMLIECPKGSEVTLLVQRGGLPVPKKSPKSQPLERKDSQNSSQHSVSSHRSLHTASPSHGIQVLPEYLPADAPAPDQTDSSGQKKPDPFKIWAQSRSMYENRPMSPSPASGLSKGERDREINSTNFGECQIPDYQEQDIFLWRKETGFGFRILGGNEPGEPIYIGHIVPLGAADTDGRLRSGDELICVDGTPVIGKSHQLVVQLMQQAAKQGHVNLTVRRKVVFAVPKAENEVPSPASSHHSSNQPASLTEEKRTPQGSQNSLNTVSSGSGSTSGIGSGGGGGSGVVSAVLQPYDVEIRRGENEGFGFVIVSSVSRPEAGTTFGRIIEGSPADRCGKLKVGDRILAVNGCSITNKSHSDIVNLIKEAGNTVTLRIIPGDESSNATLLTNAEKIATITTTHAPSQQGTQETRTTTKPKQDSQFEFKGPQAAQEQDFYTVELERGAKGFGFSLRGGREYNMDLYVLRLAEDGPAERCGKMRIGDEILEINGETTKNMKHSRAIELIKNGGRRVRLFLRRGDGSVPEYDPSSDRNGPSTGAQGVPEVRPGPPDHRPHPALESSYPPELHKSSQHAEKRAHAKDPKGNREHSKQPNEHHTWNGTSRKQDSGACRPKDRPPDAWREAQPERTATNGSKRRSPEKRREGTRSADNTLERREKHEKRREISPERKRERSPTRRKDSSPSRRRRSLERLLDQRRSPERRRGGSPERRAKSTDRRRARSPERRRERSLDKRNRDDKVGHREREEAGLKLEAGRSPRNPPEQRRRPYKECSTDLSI
UniProt P62137: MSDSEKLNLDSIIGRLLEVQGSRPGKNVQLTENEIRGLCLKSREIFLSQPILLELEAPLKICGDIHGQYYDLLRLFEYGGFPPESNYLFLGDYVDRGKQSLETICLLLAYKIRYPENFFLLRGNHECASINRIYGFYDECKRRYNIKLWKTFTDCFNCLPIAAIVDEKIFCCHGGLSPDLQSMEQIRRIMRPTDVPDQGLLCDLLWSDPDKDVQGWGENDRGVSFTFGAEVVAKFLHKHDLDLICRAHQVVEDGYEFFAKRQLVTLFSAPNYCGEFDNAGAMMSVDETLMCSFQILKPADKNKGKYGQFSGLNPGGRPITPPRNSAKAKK
UniProt Q64012: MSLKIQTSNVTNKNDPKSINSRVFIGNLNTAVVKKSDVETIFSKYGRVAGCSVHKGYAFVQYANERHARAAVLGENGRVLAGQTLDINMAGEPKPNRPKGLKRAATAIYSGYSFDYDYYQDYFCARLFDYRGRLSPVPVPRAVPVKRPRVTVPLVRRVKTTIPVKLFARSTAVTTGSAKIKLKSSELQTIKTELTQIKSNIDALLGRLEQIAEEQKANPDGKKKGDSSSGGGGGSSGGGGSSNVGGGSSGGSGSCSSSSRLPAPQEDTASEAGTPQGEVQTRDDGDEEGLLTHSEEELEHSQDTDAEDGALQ
UniProt P84077: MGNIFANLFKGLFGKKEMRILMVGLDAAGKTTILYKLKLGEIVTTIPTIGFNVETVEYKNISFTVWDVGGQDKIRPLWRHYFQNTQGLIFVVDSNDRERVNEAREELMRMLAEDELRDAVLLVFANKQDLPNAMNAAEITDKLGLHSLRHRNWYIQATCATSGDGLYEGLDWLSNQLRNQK
UniProt P07339: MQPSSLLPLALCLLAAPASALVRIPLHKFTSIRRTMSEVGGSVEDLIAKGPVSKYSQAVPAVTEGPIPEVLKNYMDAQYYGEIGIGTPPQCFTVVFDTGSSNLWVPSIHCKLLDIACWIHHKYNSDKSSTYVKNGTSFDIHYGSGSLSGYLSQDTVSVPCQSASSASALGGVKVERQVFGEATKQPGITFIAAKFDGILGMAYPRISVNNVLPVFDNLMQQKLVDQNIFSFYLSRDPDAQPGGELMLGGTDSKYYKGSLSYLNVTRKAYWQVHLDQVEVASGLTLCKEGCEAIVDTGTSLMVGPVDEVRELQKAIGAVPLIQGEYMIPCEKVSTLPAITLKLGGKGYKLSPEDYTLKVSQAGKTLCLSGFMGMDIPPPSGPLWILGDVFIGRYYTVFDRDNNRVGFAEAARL
UniProt P68104: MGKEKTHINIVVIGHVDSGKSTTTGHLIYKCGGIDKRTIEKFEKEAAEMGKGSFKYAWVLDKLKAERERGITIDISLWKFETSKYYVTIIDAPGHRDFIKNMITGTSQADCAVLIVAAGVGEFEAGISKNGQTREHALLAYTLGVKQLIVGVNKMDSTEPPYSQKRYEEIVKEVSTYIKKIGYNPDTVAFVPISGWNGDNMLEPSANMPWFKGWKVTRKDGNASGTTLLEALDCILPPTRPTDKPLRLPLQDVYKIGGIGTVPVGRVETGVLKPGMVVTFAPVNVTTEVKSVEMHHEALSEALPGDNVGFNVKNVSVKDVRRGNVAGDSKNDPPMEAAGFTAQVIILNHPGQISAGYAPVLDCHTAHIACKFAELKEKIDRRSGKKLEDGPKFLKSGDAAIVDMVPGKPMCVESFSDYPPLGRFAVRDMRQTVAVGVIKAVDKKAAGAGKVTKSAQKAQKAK
UniProt P11021, residues 19-654: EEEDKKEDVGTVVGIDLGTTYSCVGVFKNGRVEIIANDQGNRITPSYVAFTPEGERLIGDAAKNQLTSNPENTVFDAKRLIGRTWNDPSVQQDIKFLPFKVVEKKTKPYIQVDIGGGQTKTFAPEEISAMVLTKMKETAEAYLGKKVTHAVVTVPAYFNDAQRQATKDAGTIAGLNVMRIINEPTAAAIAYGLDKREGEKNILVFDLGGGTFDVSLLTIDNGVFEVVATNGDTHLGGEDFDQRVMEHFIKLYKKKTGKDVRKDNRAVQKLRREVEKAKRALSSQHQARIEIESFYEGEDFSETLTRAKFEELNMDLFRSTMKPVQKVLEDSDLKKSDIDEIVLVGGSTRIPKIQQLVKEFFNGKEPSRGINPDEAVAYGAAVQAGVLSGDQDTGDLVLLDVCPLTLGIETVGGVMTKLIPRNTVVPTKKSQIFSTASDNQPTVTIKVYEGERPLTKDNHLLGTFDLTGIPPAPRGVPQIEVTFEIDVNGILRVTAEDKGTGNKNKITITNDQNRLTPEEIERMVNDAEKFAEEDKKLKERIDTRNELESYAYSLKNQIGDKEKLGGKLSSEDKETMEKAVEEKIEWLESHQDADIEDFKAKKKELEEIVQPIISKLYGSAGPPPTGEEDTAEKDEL
UniProt P69905: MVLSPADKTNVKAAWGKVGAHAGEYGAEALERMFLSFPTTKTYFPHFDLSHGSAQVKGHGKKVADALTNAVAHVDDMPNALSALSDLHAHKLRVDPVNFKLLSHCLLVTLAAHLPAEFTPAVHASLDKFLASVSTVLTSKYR
UniProt Q14240: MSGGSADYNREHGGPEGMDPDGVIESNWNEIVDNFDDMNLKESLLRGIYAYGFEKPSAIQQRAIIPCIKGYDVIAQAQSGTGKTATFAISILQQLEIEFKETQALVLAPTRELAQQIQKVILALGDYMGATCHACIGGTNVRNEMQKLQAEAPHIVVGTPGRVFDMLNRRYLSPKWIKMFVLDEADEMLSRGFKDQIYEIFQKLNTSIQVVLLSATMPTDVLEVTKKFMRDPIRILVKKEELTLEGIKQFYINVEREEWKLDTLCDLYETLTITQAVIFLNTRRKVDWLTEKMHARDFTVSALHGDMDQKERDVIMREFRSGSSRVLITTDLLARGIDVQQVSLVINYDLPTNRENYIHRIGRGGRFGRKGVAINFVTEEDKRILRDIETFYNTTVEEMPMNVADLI

T1: MAS C-terminal tail (Ct) peptide, residues 301 to 325 of human MAS receptor, N-terminal biotin, C316S (human)
T1 sequence (peptide, biotin on the N-terminus): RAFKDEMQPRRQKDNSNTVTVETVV

B1: LNX1 (protein, UniProt Q8TBB1 1-728)
chain: MNQPESANDPEPLCAVCGQAHSLEENHFYSYPEEVDDDLICHICLQALLDPLDTPCGHTYCTLCLTNFLVEKDFCPMDRKPLVLQHCKKSSILVNKLLNKLLVTCPFREHCTQVLQRCDLEHHFQTSCKGASHYGLTKDRKRRSQDGCPDGCASLTATAPSPEVSAAATISLMTDEPGLDNPAYVSSAEDGQPAISPVDSGRSNRTRARPFERSTIRSRSFKKINRALSVLRRTKSGSAVANHADQGRENSENTTAPEVFPRLYHLIPDGEITSIKINRVDPSESLSIRLVGGSETPLVHIIIQHIYRDGVIARDGRLLPGDIILKVNGMDISNVPHNYAVRLLRQPCQVLWLTVMREQKFRSRNNGQAPDAYRPRDDSFHVILNKSSPEEQLGIKLVRKVDEPGVFIFNVLDGGVAYRHGQLEENDRVLAINGHDLRYGSPESAAHLIQASERRVHLVVSRQVRQRSPDIFQEAGWNSNGSWSPGPGERSNTPKPLHPTITCHEKVVNIQKDPGESLGMTVAGGASHREWDLPIYVISVEPGGVISRDGRIKTGDILLNVDGVELTEVSRSEAVALLKRTSSSIVLKALEVKEYEPQEDCSSPAALDSNHNMAPPSDWSPSWVMWLELPRCLYNCKDIVLRRNTAGSLGFCIVGGYEEYNGNKPFFIKSIVEGTPAYNDGRIRCGDILLAVNGRSTSGMIHACLARLLKELKGRITLTIVSWPGTFL
B2: LNX2 (protein, UniProt Q8N448 1-690)
chain: MGTTSDEMVSVEQTSSSSLNPLCFECGQQHWTRENHLYNYQNEVDDDLVCHICLQPLLQPLDTPCGHTFCYKCLRNFLQEKDFCPLDRKRLHFKLCKKSSILVHKLLDKLLVLCPFSSVCKDVMQRCDLEAHLKNRCPGASHRRVALERRKTSRTQAEIENENGPTLLDPAGTLSPEADCLGTGAVPVERHLTSASLSTWSEEPGLDNPAFEESAGADTTQQPLSLPEGEITTIEIHRSNPYIQLGISIVGGNETPLINIVIQEVYRDGVIARDGRLLAGDQILQVNNYNISNVSHNYARAVLSQPCNTLHLTVLRERRFGNRAHNHSDSNSPREEIFQVALHKRDSGEQLGIKLVRRTDEPGVFILDLLEGGLAAQDGRLSSNDRVLAINGHDLKYGTPELAAQIIQASGERVNLTIARPGKPQPGNTIREAGNHSSSSQHHTPPPYYSRPSSHKDLTQCVTCQEKHITVKKEPHESLGMTVAGGRGSKSGELPIFVTSVPPHGCLARDGRIKRGDVLLNINGIDLTNLSHSEAVAMLKASAASPAVALKALEVQIVEEATQNAEEQPSTFSENEYDASWSPSWVMWLGLPSTLHSCHDIVLRRSYLGSWGFSIVGGYEENHTNQPFFIKTIVLGTPAYYDGRLKCGDMIVAVNGLSTVGMSHSALVPMLKEQRNKVTLTVICWPGSLV
B3: LIN7A (protein, UniProt O14910 1-233)
chain: MLKPSVTSAPTADMATLTVVQPLTLDRDVARAIELLEKLQESGEVPVHKLQSLKKVLQSEFCTAIREVYQYMHETITVNGCPEFRARATAKATVAAFAASEGHSHPRVVELPKTDEGLGFNVMGGKEQNSPIYISRIIPGGVAERHGGLKRGDQLLSVNGVSVEGEHHEKAVELLKAAKDSVKLVVRYTPKVLEEMEARFEKLRTARRRQQQQLLIQQQQQQQQQQTQQNHMS
B4: MPP6 (protein, UniProt Q9NZW5 1-540)
chain: MQQVLENLTELPSSTGAEEIDLIFLKGIMENPIVKSLAKAHERLEDSKLEAVSDNNLELVNEILEDITPLINVDENVAELVGILKEPHFQSLLEAHDIVASKCYDSPPSSPEMNNSSINNQLLPVDAIRILGIHKRAGEPLGVTFRVENNDLVIARILHGGMIDRQGLLHVGDIIKEVNGHEVGNNPKELQELLKNISGSVTLKILPSYRDTITPQQVFVKCHFDYNPYNDNLIPCKEAGLKFSKGEILQIVNREDPNWWQASHVKEGGSAGLIPSQFLEEKRKAFVRRDWDNSGPFCGTISSKKKKKMMYLTTRNAEFDRHEIQIYEEVAKMPPFQRKTLVLIGAQGVGRRSLKNRFIVLNPTRFGTTVPFTSRKPREDEKDGQAYKFVSRSEMEADIKAGKYLEHGEYEGNLYGTKIDSILEVVQTGRTCILDVNPQALKVLRTSEFMPYVVFIAAPELETLRAMHKAVVDAGITTKLLTDSDLKKTVDESARIQRAYNHYFDLIIINDNLDKAFEKLQTAIEKLRMEPQWVPISWVY
B5: MPP2 (protein, UniProt Q14168 1-576)
chain: MPVAATNSETAMQQVLDNLGSLPSATGAAELDLIFLRGIMESPIVRSLAKVIMVLWFMQQNVFVPMKYMLKYFGAHERLEETKLEAVRDNNLELVQEILRDLAHVAEQSSTAAELAHILQEPHFQSLLETHDSVASKTYETPPPSPGLDPTFSNQPVPPDAVRMVGIRKTAGEHLGVTFRVEGGELVIARILHGGMVAQQGLLHVGDIIKEVNGQPVGSDPRALQELLRNASGSVILKILPSYQEPHLPRQVFVKCHFDYDPARDSLIPCKEAGLRFNAGDLLQIVNQDDANWWQACHVEGGSAGLIPSQLLEEKRKAFVKRDLELTPNSGTLCGSLSGKKKKRMMYLTTKNAEFDRHELLIYEEVARMPPFRRKTLVLIGAQGVGRRSLKNKLIMWDPDRYGTTVPYTSRRPKDSEREGQGYSFVSRGEMEADVRAGRYLEHGEYEGNLYGTRIDSIRGVVAAGKVCVLDVNPQAVKVLRTAEFVPYVVFIEAPDFETLRAMNRAALESGISTKQLTEADLRRTVEESSRIQRGYGHYFDLCLVNSNLERTFRELQTAMEKLRTEPQWVPVSWVY
B6: LIN7C (protein, UniProt Q9NUP9 1-197)
chain: MAALGEPVRLERDICRAIELLEKLQRSGEVPPQKLQALQRVLQSEFCNAVREVYEHVYETVDISSSPEVRANATAKATVAAFAASEGHSHPRVVELPKTEEGLGFNIMGGKEQNSPIYISRIIPGGIADRHGGLKRGDQLLSVNGVSVEGEHHEKAVELLKAAQGKVKLVVRYTPKVLEEMESRFEKMRSAKRRQQT
B7: MAGI3 (protein, UniProt Q5TCQ9 1-1481)
chain: MSKTLKKKKHWLSKVQECAVSWAGPPGDFGAEIRGGAERGEFPYLGRLREEPGGGTCCVVSGKAPSPGDVLLEVNGTPVSGLTNRDTLAVIRHFREPIRLKTVKPGKVINKDLRHYLSLQFQKGSIDHKLQQVIRDNLYLRTIPCTTRAPRDGEVPGVDYNFISVEQFKALEESGALLESGTYDGNFYGTPKPPAEPSPFQPDPVDQVLFDNEFDAESQRKRTTSVSKMERMDSSLPEEEEDEDKEAINGSGNAENRERHSESSDWMKTVPSYNQTNSSMDFRNYMMRDETLEPLPKNWEMAYTDTGMIYFIDHNTKTTTWLDPRLCKKAKAPEDCEDGELPYGWEKIEDPQYGTYYVDHLNQKTQFENPVEEAKRKKQLGQVEIGSSKPDMEKSHFTRDPSQLKGVLVRASLKKSTMGFGFTIIGGDRPDEFLQVKNVLKDGPAAQDGKIAPGDVIVDINGNCVLGHTHADVVQMFQLVPVNQYVNLTLCRGYPLPDDSEDPVVDIVAATPVINGQSLTKGETCMNPQDFKPGAMVLEQNGKSGHTLTGDGLNGPSDASEQRVSMASSGSSQPELVTIPLIKGPKGFGFAIADSPTGQKVKMILDSQWCQGLQKGDIIKEIYHQNVQNLTHLQVVEVLKQFPVGADVPLLILRGGPPSPTKTAKMKTDKKENAGSLEAINEPIPQPMPFPPSIIRSGSPKLDPSEVYLKSKTLYEDKPPNTKDLDVFLRKQESGFGFRVLGGDGPDQSIYIGAIIPLGAAEKDGRLRAADELMCIDGIPVKGKSHKQVLDLMTTAARNGHVLLTVRRKIFYGEKQPEDDSSQAFISTQNGSPRLNRAEVPARPAPQEPYDVVLQRKENEGFGFVILTSKNKPPPGVIPHKIGRVIEGSPADRCGKLKVGDHISAVNGQSIVELSHDNIVQLIKDAGVTVTLTVIAEEEHHGPPSGTNSARQSPALQHRPMGQSQANHIPGDRSALEGEIGKDVSTSYRHSWSDHKHLAQPDTAVISVVGSRHNQNLGCYPVELERGPRGFGFSLRGGKEYNMGLFILRLAEDGPAIKDGRIHVGDQIVEINGEPTQGITHTRAIELIQAGGNKVLLLLRPGTGLIPDHGDWDINNPSSSNVIYDEQSPLPPSSHFASIFEESHVPVIEESLRVQICEKAEELKDIVPEKKSTLNENQPEIKHQSLLQKNVSKRDPPSSHGHSNKKNLLKVENGVTRRGRSVSPKKPASQHSEEHLDKIPSPLKNNPKRRPRDQSLSPSKGENKSCQVSTRAGSGQDQCRKSRGRSASPKKQQKIEGSKAPSNAEAKLLEGKSRRIAGYTGSNAEQIPDGKEKSDVIRKDAKQNQLEKSRTRSPEKKIKRMVEKSLPSKMTNKTTSKEVSENEKGKKVTTGETSSSNDKIGENVQLSEKRLKQEPEEKVVSNKTEDHKGKELEAADKNKETGRFKPESSSPVKKTLITPGPWKVPSGNKVTGTIGMAEKRQ

These molecules were tested against T1, MAS C-terminal tail (Ct) peptide, residues 301 to 325 of human MAS receptor, N-terminal biotin, C316S (human) (assay: affinity purification with mass spectrometry; as a1 and a2; the lysate in which this PDZ hit was found (HEK293, HL-1 or both) is told only in Fig 2B; only the target purified).

binding | Molecule
binds | B1
binds | B2
binds | B3
binds | B4
binds | B5
binds | B6
binds | B7

The molecules below were run against T1, MAS C-terminal tail (Ct) peptide, residues 301 to 325 of human MAS receptor, N-terminal biotin, C316S (human) (assay: affinity purification with mass spectrometry; biotinylated MAS Ct peptide immobilised on NeutrAvidin agarose resin; HEK293 cell lysate (~4 mg), overnight at 4°C; washes with D-PBS; elution with 2% SDS; LC-MS of whole gel lanes; resin alone as control; only the target purified).

binding | Molecule
binds | MAGI1 (human) (from UniProt Q96QZ7 1-1491)

These molecules were tested against T1, MAS C-terminal tail (Ct) peptide, residues 301 to 325 of human MAS receptor, N-terminal biotin, C316S (human) (assay: affinity purification with mass spectrometry; biotinylated MAS Ct peptide immobilised on NeutrAvidin agarose resin; HL-1 cell lysate (~6 mg), overnight at 4°C; washes with D-PBS; elution with 2% SDS; LC-MS of whole gel lanes; resin alone as control; only the target purified).

binding | Molecule
binds | CAMK2G (from UniProt Q923T9 1-529)
binds | DMD (mouse) (from UniProt P11531 1-3678)
binds | MAGI1 (mouse) (from UniProt Q6RHR9 1-1471)
binds | PP1A (from UniProt P62137 1-330)
binds | RALY (from UniProt Q64012 1-312)
binds | SC23B (from UniProt Q9D662 1-767)
binds | SORL (from UniProt O88307 82-2215)
binds | UTRO (mouse) (from UniProt E9Q6R7 1-3430)

These molecules were tested against T1, MAS C-terminal tail (Ct) peptide, residues 301 to 325 of human MAS receptor, N-terminal biotin, C316S (human) (assay: affinity purification with mass spectrometry; biotinylated MAS Ct peptide immobilised on NeutrAvidin agarose resin; human cardiac tissue lysate (~600 μg), overnight at 4°C; washes with D-PBS; elution with 2% SDS; LC-MS of whole gel lanes; resin alone as control; only the target purified).

binding | Molecule
binds | ACACB (human (endogenous in heart tissue))
binds | ARF1 (from UniProt P84077 1-181)
binds | CATD (from UniProt P07339)
binds | EF1A1 (from UniProt P68104 1-462)
binds | GRP78 (from UniProt P11021 19-654)
binds | HBA (from UniProt P69905 1-142)
binds | HMCN1 (from UniProt Q96RW7 22-5635)
binds | IF4A2 (from UniProt Q14240 1-407)
binds | MAGI1 (human) (from UniProt Q96QZ7 1-1491)
binds | TNNI3 (from UniProt P19429 1-210)
